For orientation: AC50 means the midpoint of the concentration-response curve, whichever way the signal moves.

The results in this text go back to PubChem BioAssay AID445 (National Center for Advancing Translational Sciences (NCATS), 2006).

This test in a line: IkB Signaling. Conditions: ABC-DLBCL IkBa-CBG/CBR dual luciferase ratio (green luciferase fused to IkBa over red control in OCI-Ly3 lymphoma cells), 4 h. The method in brief:
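Curves were fitted separately to fusion (green), unfused (red) and ratio luminescence, then classed by r2, magnitude and activity. Cells: OCI-Ly3, 4 h compound plus doxycycline at 37C; 10 uM MG-132 defined full response.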

[1] abbreviates: measured here: control luc red channel unless noted.
[2] abbreviates: measured here: IkB-luc green channel.
The mark [3] stands for this setting: measured here: control luc red channel.

Each structure is given as a SMILES string. The list shows a part of the results. The main result of the screen is listed elsewhere. These columns were measured beside it and carry no call. Compounds called inactive in the main read-out are mostly missing here. Potencies come from curve fits of mixed quality, noted in brackets.

For `CCCCOc1ccc(C(=O)N(Cc2ccco2)Cc2ccco2)cc1`, the AC50 under setting [1] was 3.98 µM [rising, partial curve].
Turning to `Cc1c(-c2nnc(SCC(=O)Nc3ccc(Cl)cc3)o2)nnn1-c1ccc(F)cc1`, the half-maximal activity concentration (AC50) under setting [1] is 7.94 µM [falling, full curve].
The same measure, in the same setting: then `O=C(Nc1nnc(-c2ccco2)s1)C1CCCCC1`, with 15.8 µM [falling, partial curve].
On the same count and under the same terms, then `CCOC(=O)Cc1c(C)nc2c(-c3cccc(Br)c3)c[nH]n2c1=O`, with 12.6 µM [falling, partial curve]; and `CCN1CCSc2ccc(C(=O)NCc3ccccc3Br)cc21`, with 3.16 µM [falling, partial curve].
On the same count and under the same terms, the same measure for `CN1CCN(C2=C(Cl)C(=O)N(c3ccc(Cl)c(Cl)c3)C2=O)CC1`: 7.94 µM [falling, partial curve]; for `COC(=O)Cc1c(C)nc2nc(-c3ccc(C)cc3)[nH]n2c1=O`: 5.01 µM [falling, partial curve].
Consider `O=C(Nc1ccccc1C(=O)OCC(=O)N1CCc2ccccc2C1)c1ccco1`, for which the AC50 under setting [1] was 25.1 µM [falling, partial curve].
As for `CCOc1cccc2sc(NC(=O)CS(=O)(=O)c3ccc(C)cc3)nc12`, under setting [1], the concentration at half-maximal activity (AC50) was 0.794 µM [falling, full curve, poor fit].
On to `CCN(Cc1ccccc1)S(=O)(=O)c1ccc(F)c(C(=O)Nc2cc(C(F)(F)F)ccc2Cl)c1`, for which, under setting [1], the concentration at half-maximal activity (AC50) was 12.6 µM [falling, partial curve].
The same measure, in the same setting: then `COc1ccc(-n2c(=O)c3sc4ccccc4c3n(CC(=O)NC3CCCCC3)c2=O)cc1`, with 0.316 µM [rising, full curve]; and `COC(=O)CSc1ccc2c(N)c(C(=O)OC)sc2c1`, with 10 µM [falling, partial curve]; and `CCS(=O)(=O)c1c(Nc2cc(C)ccc2C)sc(C(=O)c2ccccc2)c1N`, with 39.8 µM [falling, single point].
For the compound `COc1cccc(-c2nc(S(=O)(=O)c3ccccc3)c(N3CCC(C)CC3)o2)c1`, the half-maximal activity concentration (AC50) under setting [1] is 25.1 µM [falling, partial curve].
On the same count and under the same terms, then `CC1=C(C(=O)Nc2ccccc2)C(c2cc(Br)ccc2F)n2ncc(C(=O)Nc3ccccc3)c2N1` (stereo not given), with 5.01 µM [falling, partial curve]; and `Cc1ccc(C(=O)n2nc(C)c(S(=O)(=O)N3CCOCC3)c2C)cc1C`, with 39.8 µM [falling, single point].
On the same count and under the same terms, then `COc1ccc(Cn2c(CO)cnc2SCc2cccc(C)c2)cc1`, with 6.31 µM [falling, partial curve]; and `COc1ccccc1N1CCN(C(=O)CCS(=O)(=O)c2cc(Br)cc3c2N(C(C)=O)CC3)CC1`, with 15.8 µM [falling, partial curve]; and `O=C(COc1ccc(Cl)cc1)NCC(c1ccco1)S(=O)(=O)c1ccc(Cl)cc1` (stereo not given), with 20 µM [falling, partial curve].
Same read-out and setting: the same measure for `COc1ccc(CNC(=O)c2cc3c(=O)n(C)c4ccccc4c3n2C)c(OC)c1`: 25.1 µM [falling, single point].
For the compound `Cc1cc(C)c2oc(-c3ccc(C)c(NC(=O)/C=C/c4ccco4)c3)nc2c1`, the AC50 was 31.6 µM [rising, single point] under setting [2] and 20 µM [rising, partial curve] under setting [3].
Regarding `Nc1nc(C2CC2)c(Sc2sc(N)nc2C2CC2)s1`, the AC50 under setting [1] was 12.6 µM [falling, partial curve].
Same read-out and setting: then `O=C(c1ccc(Cl)cc1)C1CCN(C(=O)NC2CCCCC2)CC1`, with 31.6 µM [falling, partial curve, poor fit].
`CCCc1cc(=O)oc2c(C)c3c(cc12)CN(CCc1ccc(Cl)cc1)CO3`: the concentration at half-maximal activity (AC50) under setting [1] is 25.1 µM [falling, single point].
Regarding `CC1CCC(NC(=O)CN2C(=O)C3CCCN3c3ncc(Cl)cc32)CC1` (stereo not given), the concentration at half-maximal activity (AC50) under setting [1] was 3.16 µM [falling, full curve].
On to `Clc1cccc(-c2nc3nc4ccccc4nc3n2Cc2ccco2)c1`, for which the AC50 under setting [1] was 1.26 µM [falling, partial curve].
On the same count and under the same terms, then `N[C@@H]1CCN(O)C1=O`, with 10 µM [rising, full curve].
For the compound `Cc1ccc2c(c1)Cc1c(nc(-c3ccc(F)cc3)nc1SCC(=O)N1CCCCC1)O2`, the half-maximal activity concentration (AC50) under setting [1] was 39.8 µM [falling, single point].
For `COc1cc(C(=O)Oc2c(CN3CCOCC3)cc(Cl)c3cccnc23)cc(OC)c1OC`, the AC50 under setting [1] is 20 µM [rising, partial curve] [measured here: IkB-luc green channel].
On the same count and under the same terms, then `CCCN1CCN(CCCNC(=O)C2CCCN(c3nc4ccc(OCC)cc4s3)C2)CC1` (stereo not given), with 15.8 µM [falling, partial curve].
The same measure, in the same setting: then `Cc1ccc(Nc2c(-c3cccnc3)nc3ccc(Cl)cn23)cc1`, with 31.6 µM [falling, partial curve].
Turning to `Nc1ncnc2c1nc(Br)n2[C@@H]1O[C@H]2COP(=O)(O)O[C@@H]2[C@H]1O`, the AC50 under setting [1] is 794 nM [rising, full curve] [measured here: IkB-luc green channel].
Still for that read-out and setting: the same measure for `O=C(Nc1ccc(S(=O)(=O)N2CCCC2)cc1)c1ccc(CN2CCOCC2)cc1`: 10 µM [falling, partial curve]; for `CCc1ccccc1Nc1ncnc2c1cnn2-c1ccc(C)cc1C`: 0.794 µM [falling, full curve, poor fit]; for `CC(C)COc1ccc(C(=O)Nc2nnc(S(=O)(=O)N(C)Cc3ccco3)s2)cc1`: 1.26 µM [falling, partial curve].
Regarding `COc1ccc(C(=O)OCC(=O)c2ccc(C)c(S(=O)(=O)N3CCOCC3)c2)cc1OC`, the AC50 under setting [1] was 7.94 µM [falling, partial curve].
On the same count and under the same terms, then `CCc1cccc(NC(c2ccccc2)c2nnc(-c3ccccc3F)o2)c1` (stereo not given), with 39.8 µM [falling, single point].
On the same count and under the same terms, then `Fc1ccc2[nH]c3c(N4CCN(c5ccccc5)CC4)ncnc3c2c1`, with 3.98 µM [falling, full curve]; and `CC(=O)N1CCC(C(=O)Nc2nc(-c3ccccc3)ns2)CC1`, with 39.8 µM [falling, single point].
On the same count and under the same terms, the same measure for `CN(Cc1cc(=O)[nH]c2ccccc12)C(=O)c1ccccc1`: 0.316 µM [falling, full curve]; for `Cc1ccc(-n2ncc(C(=O)NCCN3CCN(C)CC3)c2C2CCN(C(=O)OC(C)(C)C)CC2)cc1`: 39.8 µM [falling, single point].
Consider `Cc1nc(C)c(-c2ccc(SCC(=O)Nc3cccc(C)c3C)nn2)s1`, for which the AC50 under setting [1] is 39.8 µM [falling, single point].
The same measure, in the same setting: the same measure for `Cc1ccccc1C(=O)NNc1ncnc2c1cnn2-c1cccc(Cl)c1`: 20 µM [falling, partial curve]; for `CCOc1ccc(S(=O)(=O)Nc2cc(Cl)ccc2O)cc1`: 12.6 µM [falling, partial curve].
Still for that read-out and setting: the same measure for `CCCc1ccc(NC(=O)C2CCCN(c3cnccn3)C2)cc1` (stereo not given): 31.6 µM [falling, single point]; for `CCOc1ccc(Nc2nc(C)c(NC(=O)c3cccc(F)c3)c(Nc3ccc(OCC)cc3)n2)cc1`: 12.6 µM [falling, partial curve]; for `COc1cccc(-c2oc3ccc(C)cc3c(=O)c2O)c1`: 31.6 µM [falling, single point].
Consider `CCC1Oc2ccc(C)cc2N(CC(=O)N2CCN(c3ccccc3OC)CC2)C1=O` (stereo not given), for which the AC50 under setting [1] is 39.8 µM [falling, single point].
The same measure, in the same setting: the same measure for `O=S(=O)(c1ccc(-c2csc(=Nc3ccc(F)cc3)n2CCCCCCO)cc1)N1CCCC1`: 3.16 µM [falling, full curve]; for `Cc1cccc(OCC(=O)Nc2ccc3c(c2)nc(CN2CCCCC2)n3C)c1`: 12.6 µM [falling, single point].
Still for that read-out and setting: then `Cc1ccc(-n2ncc3c(N4CCN(Cc5ccccc5)CC4)ncnc32)cc1Cl`, with 20 µM [falling, partial curve].
The same measure, in the same setting: then `CCc1cc(=O)[nH]c(SCc2nc(-c3cccc(Cl)c3)no2)n1`, with 20 µM [falling, partial curve]; and `CCOCCCn1c(SCC(=O)Nc2ccc(CC)cc2)nc2ccccc2c1=O`, with 25.1 µM [falling, single point]; and `CCn1c(=O)c(C(=O)Nc2nc3ccccc3[nH]2)c(O)c2ccccc21`, with 0.126 µM [falling, full curve].
Turning to `Cc1ccccc1Cn1c(=O)c2c(nc3n2CCCN3Cc2ccccc2)n(C)c1=O`, the AC50 under setting [1] is 10 µM [falling, partial curve].
On the same count and under the same terms, then `C=CCn1c(=O)c(C(=O)Nc2ccccc2O)c(O)c2ccccc21`, with 0.251 µM [falling, full curve]; and `CCOC(=O)C1CCN(C(=O)c2ccc3c(c2)sc2nc(-c4ccc(OC)cc4)cn23)CC1`, with 12.6 µM [falling, partial curve].
As for `C[N+](C)(C)CCC(=O)c1cccc2ccccc12`, the concentration at half-maximal activity (AC50) is, setting by setting: under setting [2], 7.94 µM [falling, full curve, poor fit]; under setting [3], 3.98 µM [falling, full curve].
Turning to `CCCCNC(=O)CSc1nc2n[nH]c(C)c2c(=N)n1-c1cccc(C)c1`, the concentration at half-maximal activity (AC50) under setting [1] is 25.1 µM [falling, single point].
Consider `Cc1cnc(NC(=O)COc2ccccc2)s1`, for which the AC50 under setting [1] was 20 µM [falling, single point].
On the same count and under the same terms, then `Cc1nc2ccc(S(=O)(=O)NC(CC(C)C)C(=O)NCc3ccc(Cl)cc3)cc2s1` (stereo not given), with 20 µM [falling, partial curve].
The same measure, in the same setting: then `C=CCc1cccc2cc(-c3nc4ccc(C(=O)O)cc4[nH]3)c(=O)oc12`, with 0.2 µM [falling, full curve]; and `CCOC(=O)c1cc(S(=O)(=O)Nc2c(C)cc(C)cc2C)[nH]n1`, with 10 µM [falling, partial curve].
